Our source for the binding values is publication PMC5675994.

Amino acid sequences for entries named in this document (tags omitted). A change or cut given only in a name is not applied to a line headed by its entry.
UniProt Q07540: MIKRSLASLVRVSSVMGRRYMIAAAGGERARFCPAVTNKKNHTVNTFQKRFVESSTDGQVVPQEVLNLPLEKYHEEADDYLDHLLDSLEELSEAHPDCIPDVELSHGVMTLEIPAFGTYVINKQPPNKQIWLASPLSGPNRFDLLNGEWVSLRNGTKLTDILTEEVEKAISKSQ

No constants are given. Whether binding was seen depends on the method and setting. Binding seen in cells or lysates may run through a third protein. Here binding means that the protein was enriched with, or labelled near, the bait; the list need not be complete. For some of these results: Where a sequence is shown, tags or fusion partners need not be part of it.

Assay [1] deals with Yfh1-His6 (S. cerevisiae) (UniProt Q07540). Put plainly: affinity purification with mass spectrometry; Yfh1-His6 held on Ni-NTA superflow agarose from French-press lysate (108,000xg supernatant) of isolated mitochondria of the Yfh1-His6 yeast strain; 50 mM TrisCl pH 7.5, 80 mM KCl, 10% glycerol, wash 40 mM imidazole with 0.1% Triton X-100, elution 400 mM imidazole; eluate analysed by LC-MS/MS.

In assay [2] the target is T1, Nfs1-His6 (S. cerevisiae) (UniProt P25374).
T1 sequence: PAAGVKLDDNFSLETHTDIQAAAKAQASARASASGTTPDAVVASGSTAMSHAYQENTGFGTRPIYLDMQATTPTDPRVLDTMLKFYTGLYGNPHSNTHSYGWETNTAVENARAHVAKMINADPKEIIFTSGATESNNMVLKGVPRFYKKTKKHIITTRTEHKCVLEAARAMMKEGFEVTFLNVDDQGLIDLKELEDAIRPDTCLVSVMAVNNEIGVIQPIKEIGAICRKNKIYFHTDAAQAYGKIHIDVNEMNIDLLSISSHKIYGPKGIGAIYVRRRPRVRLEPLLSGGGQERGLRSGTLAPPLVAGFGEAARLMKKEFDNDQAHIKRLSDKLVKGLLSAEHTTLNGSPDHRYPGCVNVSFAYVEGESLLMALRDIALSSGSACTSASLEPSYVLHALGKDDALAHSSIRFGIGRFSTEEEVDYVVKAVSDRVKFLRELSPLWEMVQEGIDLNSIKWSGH
Put plainly: affinity purification with mass spectrometry; Nfs1-His6 held on Ni-NTA superflow agarose from sonicated, cleared lysate of isolated mitochondria of the Gal-Nfs1-His6 yeast strain; 50 mM TrisCl pH 7.5, 80 mM KCl, 10% glycerol, wash 40 mM imidazole, elution 400 mM imidazole; eluate analysed by LC-MS/MS.

The target of assay [3] is T2, Nfs1-His6 (S. cerevisiae), P25374.
T2 chain: T1 sequence
The assay is described as above. The settings on record: remark: other sources report otherwise.

B1: Isocitrate dehydrogenase [NAD] subunit 1, mitochondrial (protein, UniProt P28834 12-360)
chain: ATAAQAERTLPKKYGGRFTVTLIPGDGVGKEITDSVRTIFEAENIPIDWETINIKQTDHKEGVYEAVESLKRNKIGLKGLWHTPADQTGHGSLNVALRKQLDIYANVALFKSLKGVKTRIPDIDLIVIRENTEGEFSGLEHESVPGVVESLKVMTRPKTERIARFAFDFAKKYNRKSVTAVHKANIMKLGDGLFRNIITEIGQKEYPDIDVSSIIVDNASMQAVAKPHQFDVLVTPSMYGTILGNIGAALIGGPGLVAGANFGRDYAVFEPGSRHVGLDIKGQNVANPTAMILSSTLMLNHLGLNEYATRISKAVHETIAEGKHTTRDIGGSSSTTDFTNEIINKLSTM
In the case of B1, the binding entry in assay [1] and in assay [2] was “binds” throughout.

B2: Isocitrate dehydrogenase [NAD] subunit 2, mitochondrial (protein, UniProt P28241 16-369)
chain: ATVKQPSIGRYTGKPNPSTGKYTVSFIEGDGIGPEISKSVKKIFSAANVPIEWESCDVSPIFVNGLTTIPDPAVQSITKNLVALKGPLATPIGKGHRSLNLTLRKTFGLFANVRPAKSIEGFKTTYENVDLVLIRENTEGEYSGIEHIVCPGVVQSIKLITRDASERVIRYAFEYARAIGRPRVIVVHKSTIQRLADGLFVNVAKELSKEYPDLTLETELIDNSVLKVVTNPSAYTDAVSVCPNLYGDILSDLNSGLSAGSLGLTPSANIGHKISIFEAVHGSAPDIAGQDKANPTALLLSSVMMLNHMGLTNHADQIQNAVLSTIASGPENRTGDLAGTATTSSFTEAVIKRL
For B2, the binding result in assay [1] and in assay [2] was “binds” each time.

B3: Branched-chain-amino-acid aminotransferase, mitochondrial (protein, UniProt P38891 17-393)
chain: LATGAPLDASKLKITRNPNPSKPRPNEELVFGQTFTDHMLTIPWSAKEGWGTPHIKPYGNLSLDPSACVFHYAFELFEGLKAYRTPQNTITMFRPDKNMARMNKSAARICLPTFESEELIKLTGKLIEQDKHLVPQGNGYSLYIRPTMIGTSKGLGVGTPSEALLYVITSPVGPYYKTGFKAVRLEATDYATRAWPGGVGDKKLGANYAPCILPQLQAAKRGYQQNLWLFGPEKNITEVGTMNVFFVFLNKVTGKKELVTAPLDGTILEGVTRDSVLTLARDKLDPQEWDINERYYTITEVATRAKQGELLEAFGSGTAAVVSPIKEIGWNNEDIHVPLLPGEQCGALTKQVAQWIADIQYGRVNYGNWSKTVADLN
As to B3, the binding result in assay [1] and in assay [2] was “binds” throughout.

B4: DnaJ homolog 1, mitochondrial (protein, UniProt P35191 56-511)
chain: NEAFKDPYDTLGLKKSATGAEIKKAYYKLAKKYHPDINKEPDAEKKFHDLQNAYEILSDETKRQQYDQFGPAAFGGGGAAGGAGGGSGSPFGSQFHDFSGFTSAGGSPFGGINFEDLFGAAFGGGGRGSGGASRSSSMFRQYRGDPIEIVHKVSFKDAVFGSKNVQLRFSALDPCSTCSGTGMKPNTHKVSCSTCHGTGTTVHIRGGFQMMSTCPTCNGEGTMKRPQDNCTKCHGEGVQVNRAKTITVDLPHGLQDGDVVRIPGQGSYPDIAVEADLKDSVKLSRGDILVRIRVDKDPNFSIKNKYDIWYDKEIPITTAALGGTVTIPTVEGQKIRIKVAPGTQYNQVISIPNMGVPKTSTIRGDMKVQYKIVVKKPQSLAEKCLWEALADVTNDDMAKKTMQPGTAAGTAINEEILKKQKQEEEKHAKKDDDNTLKRLENFITNTFRKIKGDKKN
As for B4, the binding result in assay [1] and in assay [2] was “binds” each time.

B5: ATP synthase subunit gamma, mitochondrial (protein, UniProt P38077 34-311)
chain: ATLKEVEMRLKSIKNIEKITKTMKIVASTRLSKAEKAKISAKKMDEAEQLFYKNAETKNLDVEATETGAPKELIVAITSDKGLCGSIHSQLAKAVRRHLNDQPNADIVTIGDKIKMQLLRTHPNNIKLSINGIGKDAPTFQESALIADKLLSVMKAGTYPKISIFYNDPVSSLSFEPSEKPIFNAKTIEQSPSFGKFEIDTDANVPRDLFEYTLANQMLTAMAQGYAAEISARRNAMDNASKNAGDMINRYSILYNRTRQAVITNELVDIITGASSLG
B5: the binding result in assay [1] and in assay [2] was “binds” each time.

B6: Pyruvate decarboxylase isozyme 1 (protein, UniProt P06169 1-563)
chain: MSEITLGKYLFERLKQVNVNTVFGLPGDFNLSLLDKIYEVEGMRWAGNANELNAAYAADGYARIKGMSCIITTFGVGELSALNGIAGSYAEHVGVLHVVGVPSISAQAKQLLLHHTLGNGDFTVFHRMSANISETTAMITDIATAPAEIDRCIRTTYVTQRPVYLGLPANLVDLNVPAKLLQTPIDMSLKPNDAESEKEVIDTILALVKDAKNPVILADACCSRHDVKAETKKLIDLTQFPAFVTPMGKGSIDEQHPRYGGVYVGTLSKPEVKEAVESADLILSVGALLSDFNTGSFSYSYKTKNIVEFHSDHMKIRNATFPGVQMKFVLQKLLTTIADAAKGYKPVAVPARTPANAAVPASTPLKQEWMWNQLGNFLQEGDVVIAETGTSAFGINQTTFPNNTYGISQVLWGSIGFTTGATLGAAFAAEEIDPKKRVILFIGDGSLQLTVQEISTMIRWGLKPYLFVLNNDGYTIEKLIHGPKAQYNEIQGWDHLSLLPTFGAKDYETHRVATTGEWDKLTQDKSFNDNSKIRMIEIMLPVFDAPQNLVEQAKLTAATNAKQ
In the case of B6, the binding entry in assay [1] and in assay [2] was “binds” in each case.

B7: Malate dehydrogenase, mitochondrial, P17505 18-334 (protein)
chain: YKVTVLGAGGGIGQPLSLLLKLNHKVTDLRLYDLKGAKGVATDLSHIPTNSVVKGFTPEEPDGLNNALKDTDMVLIPAGVPRKPGMTRDDLFAINASIVRDLAAATAESAPNAAILVISNPVNSTVPIVAQVLKNKGVYNPKKLFGVTTLDSIRAARFISEVENTDPTQERVNVIGGHSGITIIPLISQTNHKLMSDDKRHELIHRIQFGGDEVVKAKNGAGSATLSMAHAGAKFANAVLSGFKGERDVIEPSFVDSPLFKSEGIEFFASPVTLGPDGIEKIHPIGELSSEEEEMLQKCKETLKKNIEKGVNFVASK
Consider B7, for which, in assay [3], the binding result is “binds”.
